Reference: US12005068B2, “Formulation including doxycycline hyclate and method for administering the same” (priority 2017, dated 2024)
At least one compound was matched to its structure with a doubt left.

Test system: osteoarthritis
Assay: Example 6: human subject with osteoarthritis in both knees
Format: in vivo
Details: patient history; side effects put them in a worse state
Experimental: The following in vivo study of a human subject diagnosed with osteoarthritis.
A patient presented with osteoarthritis in both knees due to a previous trauma years ago in their life. Their knees are in a constant state of pain and inflammation. They also have arthritis in the toe joints and shoulder.
The patient then began a new treatment course to alleviate the pain. This treatment is a novel formulation of topical doxycycline hyclate suspension at a concentration of 400 mg/g. Each dose was 2 ml per knee. They applied it to the affected areas when they were feeling the pain. By the next day the patient feels minimal pain. They apply 1.5 ml of the topical doxycycline suspension daily for a week at night. […] undergoes this treatment once every 4-6 months.

SMILES: Cc1cnc(NC(=O)C2=C(O)c3ccccc3S(=O)(=O)N2C)s1 [Meloxicam]
- effect of previously tried medications on pain: did not help manage the pain
